# Several values for one entry are separate records, joined by “and”; a condition that tells them apart may be missing. Equal values may be shown once. This is one part of the list. For some of these results: The source does not settle which construct or isoform was used.
# Chains of the proteins cited; added tags and fusions are not shown. Lines headed by an entry give the natural chain unless they say otherwise; changes in a name come on top.
# UniProt Q9BQ15: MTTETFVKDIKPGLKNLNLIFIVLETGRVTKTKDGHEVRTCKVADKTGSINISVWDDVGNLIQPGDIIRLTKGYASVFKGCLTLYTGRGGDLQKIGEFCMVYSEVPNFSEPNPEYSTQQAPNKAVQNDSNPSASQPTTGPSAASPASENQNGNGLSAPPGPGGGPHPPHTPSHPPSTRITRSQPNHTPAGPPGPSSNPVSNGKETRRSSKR
# Assays:
# Assay in all cases: protein microarray (ProtoArray v5.0), streptavidin-Alexa Fluor 647
# Conditions in all cases: 3'-biotin; 20 mM Tris (pH 7.5), 5 mM MgCl2, 100 mM KCl, 0.1% Tween-20, A/T-rich and random oligonucleotide blockers; temperature not stated; high values mean tight binding
# [1] = test system: Nuclear protein Hcc-1 (human)
# [2] = test system: Nuclear receptor-binding protein (human)
# [3] = biological target: OBFC2B (UniProt Q9BQ15)
# [4] = test system: ODAM (human)
# [5] = test system: OGN (human)
# [6] = test system: OGT (human)
# [7] = test system: OPA3 (human)
# [8] = test system: OR4D6 (human)
# [9] = test system: ORC4L (human)
# [10] = test system: ORM1 (human)
sequence,measurement,setting,value
GGTGACAGGGGTATGGGGAGGGG [G4-2 biotinylated (Ct1)],binding signal,[1],4.43 z-score and 6.78 z-score
same,binding signal,[2],-0.39 z-score
same,binding signal,[3],3.15 z-score
same,binding signal,[4],-0.389 z-score
same,binding signal,[5],-0.383 z-score
same,binding signal,[6],-0.405 z-score
same,binding signal,[7],-0.375 z-score
same,binding signal,[8],-0.356 z-score
same,binding signal,[9],-0.36 z-score
same,binding signal,[10],-0.39 z-score

# In another format: results already given.
sequence	measurement	setting	value
GGTGACAGGGGTATGGGGAGGGG [G4-2 biotinylated (Ct1)]	binding signal	[2]	-0.39 z-score
same	binding signal	[4]	-0.389 z-score
